# Test results as given in the supplement of paper PMC5407854, “Inhibitor of ppGalNAc-T3-mediated O-glycosylation blocks cancer cell invasiveness and lowers FGF23 levels” (eLife, 2017).
# The full ranking holds about 1,700 compounds; the median of “T2 sensor activation Q score (MG/GFP ratio z-score vs DMSO controls)” is about 0.3, and the highest 2% start at about 1.9. The list shows a part of the results.
# Tested on: ppGalNAc-T2 sensor
# Assay: T2 sensor activation Q score (MG/GFP ratio z-score vs DMSO controls) (SD units); higher = more sensor activation (inhibition of ppGalNAc-T2 glycosylation)
# Conditions: HEK293 sensor cells; 10 µM; 6 h
# Description: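 Cells were treated with compound at 10 uM for 6 h, then MG/GFP ratio was read by flow cytometry (10,000 cells per well, duplicate wells). Q = (R - R_neg)/SD_neg relative to DMSO vehicle controls; the signal rises when the glycosyltransferase is inhibited.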
row,Compound,T2 sensor activation Q score
1,CN(C)/N=N/c1nc[nH]c1C(N)=O,-0.9
2,O=C(Nc1ccc(C(=O)O)c(O)c1)c1ccccc1,0.25
3,Cc1nc2[nH]c(=O)n(O)c(=O)c2s1,-0.35
4,S=c1nc[nH]c2c1ncn2C1CCCO1 (stereo not given),0
5,CC(=O)OCCn1c2nc(=O)[nH]c(=O)c-2nc2cc(C)c(C)cc21,0.6
6,COc1cc(NCc2ccccc2O)c2ncccc2c1,0.95
7,Cn1cnc2ncnn2c1=S,-0.05
8,O=C(/C=C/c1cccnc1)/C=C/c1cccnc1,1.6
9,COc1cc(CCC(=O)O)on1,1.45
10,N#Cc1cnn(-c2cccc(Cl)c2)c1-n1cccc1,0.2
11,Nc1ccc(NC(=O)c2ccc(C(=O)Nc3ccc(N)cc3)cc2)cc1,1.9
12,CCOP(=O)(OCC)/C(C#N)=C/c1c[nH]c2ccccc12,-0.2
13,CC1=NN(c2ccccc2)C(=O)C1C(=S)SC1CC(=O)NC1=O (stereo not given),0.2
14,O=c1[nH]c2ccccc2n1C1=CCNCC1,1.15
15,Cn1c(=O)c2[nH]c(CCCc3ccc([N+](=O)[O-])cc3)nc2n(C)c1=O,0.25
16,Cn1c2c(sc1=O)CCC2,-0.4
17,S=C(Sc1ccc(Cl)cc1)Sc1ccc(Cl)cc1,1.05
18,COc1ccc2nc(-c3ccc(Cl)cc3)cc(C(=O)O)c2c1,-0.7
19,N#Cc1c(N)nc(N)nc1Nc1ccc(Br)cc1,1.15
20,CCCC1OC(c2cc3c(cc2Cl)OCO3)OCC1CC (stereo not given),-1.4
21,Oc1c(N=Nc2nn[nH]n2)ccc2ccccc12,3.6
22,CCCCSc1cc(=O)[nH]c(N)n1,1.85
23,O=C1c2ccccc2C(O)(c2ccccc2)N1c1ccncc1 (stereo not given),1.75

row,Compound,T2 sensor activation Q score
1,CC(=O)Nc1cccc(NC(C)=O)n1,0.7
2,CCOC(=O)CCC1(C(=O)OC)C(=O)CCCCC/C=C/1C(=O)OC (stereo not given),-0.5
3,NC(=O)c1cc(Br)cc(C2CCCCC2)c1O,0.8
4,O=C1c2ccccc2NC(c2cc(Cl)cc(Cl)c2O)N1CCc1ccccn1 (stereo not given),-0.65
5,Nc1ccc2c(c1)N=[N+]([O-])c1cc(N)ccc1C2,1.55
6,CCSc1nc(O)cc(=O)[nH]1,-0.9
7,Cn1cnc([N+](=O)[O-])c1Sc1ncn[nH]1,0.25
8,Oc1ccc(Nc2ccnc3cc(Cl)ccc23)cc1,1.55
9,Cc1ccc(NC(=O)N2CCCCC2)cc1NC(=O)N1CCCCC1,-0.2
10,CCCS(=O)(=O)Nc1ccc(F)c(C(=O)c2c[nH]c3ncc(-c4ccc(Cl)cc4)cc23)c1F,0.25
11,CCOC(=O)N1C/C(=C\c2ccccc2)C(=O)/C(=C/c2ccccc2)C1,2.95
12,Cc1nc(/N=C(/N)N(C)C)[nH]c(=O)c1C,1.35
13,OC(c1cc(C(F)(F)F)nc2c(Cl)cc(Cl)cc12)C1CCCCN1 (stereo not given),0.35
14,C[C@@H](CN1CC(=O)NC(=O)C1)N1CC(=O)NC(=O)C1,0.25
15,COc1cnc(SC)nc1Nc1ccc(C#N)cc1,1.65
16,O=C(Nc1ccc(Oc2ccc(NC(=O)Nc3ccc([N+](=O)[O-])cc3)cc2)cc1)Nc1ccc([N+](=O)[O-])cc1,0.7
17,O=C(O)/C(=C/c1ccccc1)c1ccccc1,0.05
18,O=c1c2ccccc2ncn1-c1ccc(Cl)cc1,-1.3
19,S=C1NC2(CCCCCC2)NN1c1ccccc1,0.05
20,NC(N)=NCCCS(=O)(=O)Nc1ccc(Nc2c3ccccc3nc3cc([N+](=O)[O-])ccc23)cc1,-0.65
21,CCOc1nc(OCC)c2cnn(C)c2n1,-0.25
22,Oc1cc(CNC2CCCCC2)c(O)cc1CNC1CCCCC1,0.7
23,Fc1ccc(-c2cc(-c3cccs3)cc(-c3ccccc3)n2)cc1,0.45

row,Compound,T2 sensor activation Q score
1,NC(=O)c1ccc(N=Nc2c(O)c3ccccc3[nH]c2=O)cc1,1.05
2,CCc1c(N=O)c(-c2ccccc2)n(O)[n+]1[O-],0.15
3,Nc1cc([N+](=O)[O-])ccc1N1C(=O)CCCC1=O,-1.05
4,COC1OC(O)C(NC(=O)C(F)(F)F)CC1O (stereo not given),1.2
5,O=C(O)c1ccc2c(c1Nc1ccccc1)C(=O)c1ccccc1C2=O,-2.6
6,CSc1nc(=O)[nH]nc1Sc1ccccc1,-1.35
7,O=NN(CCCl)C(=O)NC1CCCCC1,-0.5
8,COC(=O)c1c(-c2ccccc2)[nH]c(-c2nccc3ccccc23)c1C(=O)OC,-0.35
9,O=C1c2ccccc2C(=O)c2[nH]cnc21,1.7
10,Cn1c(=O)c2c(nc(Cc3ccccc3)n2C)n(C)c1=O,1.35
11,Cc1cc(=O)c2c(C)ccc(C)c2[nH]1,-0.5
12,COC(=O)c1ccc(C(=O)OC)c(=O)[nH]1,0.25
13,Cc1cccc(Nc2sc(C(=O)c3cc4cc(Cl)ccc4o3)c(N)c2C#N)c1,-0.75
14,Cc1ccc(NC(=O)Nc2c(Cl)cccc2Cl)cn1,-1.25
15,CC1CCC(C(C)C)C(NC(=O)c2ccncc2)C1 (stereo not given),-1
16,CN(C)S(=O)(=O)Nc1cccc(Br)c1,-0.25
17,N#CC1=C(Nc2ccccc2Cl)SC(c2ccccc2O)NC1=O (stereo not given),0.2
18,CN(C)S(=O)(=O)Nc1ccccn1,0.25
19,COc1ccccc1/C=C/C(=O)/C=C/c1ccccc1O,1.7
20,Cc1nc2cc[nH]n2c(=O)c1CCc1ccccc1,0.35
21,CC(=O)[C@H]1CC[C@H]2[C@@H]3CCC4=CC(=O)CC[C@]4(C)[C@@]3(F)[C@@H](O)C[C@]12C,-1.95
22,CC(=O)[C@H]1CC[C@H]2[C@@H]3CCC4=CC(=O)C=C[C@]4(C)[C@H]3C(=O)C[C@]12C,1.65
23,COC(=O)Cc1[nH]c(=S)[nH]c1C(=O)OC,1.2

row,Compound,T2 sensor activation Q score
1,Cc1cccc(NC(=S)Nc2cccc(C)n2)n1,1.4
2,C=CCNC(=S)NCC=C,-1.6
3,O=C1C2C3C=CC(CC3)C2S(=O)(=O)C2C3C=CC(CC3)C12 (stereo not given),1.8
4,c1ccc(-c2ccc3c(c2)NC(C2Nc4cc(-c5ccccc5)ccc4O2)O3)cc1 (stereo not given),-0.1
5,Cc1cc(NC(=O)Nc2cc(Cl)ccc2C)no1,-1
6,CN(C)N1C(=O)c2c(Cl)c(Cl)c(Cl)c(Cl)c2C1=O,0.65
7,N#CC1=C(Nc2ccccc2Cl)SC(c2ccncc2)NC1=O (stereo not given),1.8
8,ClN=C1C=CC=CC1=NCl,1.45
9,Clc1nnc2c3ccccc3ccn12,1.85
10,Cc1nc(N)[nH]c(=O)c1CCCNc1ccc(CCC2(CCl)OCCO2)cc1,0.2
11,NC(N)=Nc1nc2ccc([N+](=O)[O-])cc2[nH]1,0.35
12,c1ccc2sc(SCSc3nc4ccccc4s3)nc2c1,-1.6
13,Nc1cccc2c1CN(C1CCC(=O)NC1=O)C2=O (stereo not given),-0.4
14,O=C(Cn1ccc(=O)[nH]c1=O)Nc1ccc(C(=O)O)c(O)c1,0.5
15,O=C1OCC/C1=C\c1ccc(O)cc1,1.3
16,C=C(C)CN=CC1(C)CCC(C)=CO1 (stereo not given),0.2
17,CCCNC(=O)Nc1ccc(C)cc1C,0.85
18,S=c1[nH]c2cc(-c3ccccc3)ccc2o1,0.65
19,CCOC(=O)c1nnsc1-c1ccc(-c2snnc2C(=O)OCC)cc1,0.95
20,COc1ccc(C(=S)N2CCN(c3cccc(Cl)c3)CC2)cc1,0.55
21,O=C(Oc1ccc[nH]c1=O)c1cccc(Cl)c1,1.1
22,CNC(=O)Nc1ccc(S(N)(=O)=O)cc1,0.15
23,Cc1ccc2nc(Cl)cc(=O)n2c1,-0.25

row,Compound,T2 sensor activation Q score
1,C(=C\c1ccc(/C=C/c2ccccc2)nn1)/c1ccccc1,1.45
2,Cc1nnc(Cc2ccccc2)c2n[nH]c(C)c12,0.65
3,Oc1ccc(N=Nc2nccs2)c(O)c1,-0.75
4,O=C(Nc1cc(-c2ccccc2)[nH]n1)c1ccc(Cl)cc1,1.45
5,NNC(=O)CNc1cccc(Br)c1,-0.1
6,Nc1nc(Nc2ccccc2)n[nH]1,1.2
7,COc1ccc(N=Nc2c(N)n[nH]c2N)cc1,-0.95
8,O=C(Nc1ccc2ncccc2c1)Nc1ccc2ncccc2c1,-0.4
9,O=C1C(Cl)=C(O)C2(Cl)C(Cl)=C(Cl)C12Cl (stereo not given),1
10,Cc1cccc2cc3cccc(C)c3nc12,0.3
11,CCOC(=O)c1cnc(SCC)[nH]c1=O,0.9
12,COc1ccc(C(=S)N2CCN(c3ccccc3Cl)CC2)cc1OC,0.45
13,COC(=O)c1c[n+]([O-])ccc1OC,1.25
14,CC1OC1c1ccc(-c2ccc(C3OC3C)cc2)cc1 (stereo not given),0.65
15,NC(=O)c1ncn2c(=O)n(CCCl)nnc12,0.9
16,CN(C)CCCN1c2ccc3ccccc3c2Sc2cccc(Cl)c21,-1.75
17,O=C(NCc1ccco1)Nc1ccc([N+](=O)[O-])cc1,1.75
18,O=C(O)C1=NN(c2cc(Cl)c(S(=O)(=O)O)cc2Cl)C(=O)C1,1.3
19,CCC(C)Oc1nc2c(c(=O)n(C)c(=O)n2C)n1C (stereo not given),1.5
20,O=C(Nc1ccc(Br)cc1)Nc1ccccc1Cl,-0.9
21,CCCCCCC(C)OC(=O)c1ccccc1C(=O)O (stereo not given),-1.1
22,CC(=O)O[C@H]1CC[C@@]2(C)[C@@H](CC[C@@H]3[C@@H]2CC(=O)[C@@]2(C)[C@H]3C[C@@H]3CC(C)=CC(=O)[C@@H]32)C1,-1.75
23,Clc1cc2c(c(CSc3nc4ccccc4n4cccc34)c1)OCOC2,0.95

# Reformatted tab-delimited: entries from further up
row	Compound	T2 sensor activation Q score
8	O=C(Nc1ccc2ncccc2c1)Nc1ccc2ncccc2c1	-0.4
9	O=C1C(Cl)=C(O)C2(Cl)C(Cl)=C(Cl)C12Cl (stereo not given)	1
17	O=C(NCc1ccco1)Nc1ccc([N+](=O)[O-])cc1	1.75
20	O=C(Nc1ccc(Br)cc1)Nc1ccccc1Cl	-0.9
